Data on 2 sequences can be found in PMC8786823, “Flanking sequences influence the activity of TET1 and TET2 methylcytosine dioxygenases and affect genomic 5hmC patterns”.

The series has as its target T1, UHRF2 SRA domain (human) (UniProt Q96PU4).
T1 sequence (looked up): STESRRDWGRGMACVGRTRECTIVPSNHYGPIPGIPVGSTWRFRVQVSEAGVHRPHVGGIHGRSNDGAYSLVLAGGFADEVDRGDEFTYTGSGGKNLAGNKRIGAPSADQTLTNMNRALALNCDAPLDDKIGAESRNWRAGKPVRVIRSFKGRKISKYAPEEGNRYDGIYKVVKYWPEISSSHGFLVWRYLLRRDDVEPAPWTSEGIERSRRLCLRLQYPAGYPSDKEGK
The series can be described thus: EMSA. The following applies: 0.5 uM DNA, compared with hmC, 20 mM HEPES pH 7.9, 100 mM NaCl, 2 mM MgCl2, 2 mM DTT, 0.1% NP-40, 5% glycerol, 30 min on ice, 6% PAGE in 0.25X TBE, recombinant protein, residues 419-648, protein details: His. (In general: Mobility shift assays separate free from complexed probe on a gel.)

The exact form of at least one protein or probe is not confirmed. Weaker means in comparison with the reference protein, sequence or condition of that experiment. At least one verdict rests on a figure or table, not on a statement of the authors. Protein sequences can lack the tags named with them.

As for “GAAGCTGGGACGCGCGCCGGGAGAGTGCAA (double strand) [TET-disf-mC/TET-disf-rev]”, the binding result (5mC at position 15 of strand 1 (hemimethylated CpG), GelRed stain) was “binds more weakly”.
“GAAGCTGGGACGCGCGCCGGGAGAGTGCAA (double strand) [TET-disf/TET-disf-rev]”: the binding result (GelRed …) is “binds more weakly”.
